# Measurements taken from PubChem BioAssay AID1347423 (Functional Genomics Laboratory (NCATS/FGL), 2020).
# In all, about 52,000 sequences went through this assay and about 210 (0.4%) were called active.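 The calls were made as follows: active = gene whose silencing raises cell survival under the drug, median off-target-corrected z-score across its silencing RNAs 2 or more; inactive = the rest.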 The list shows a part of the results.
# Assay: Resistance to Poly (ADP-Ribose) Polymerase inhibitor: Gene Identification via Genome-wide siRNA Screen
# Conditions: mouse BRCA2 R2336H ES cells, olaparib, CellTiter-Glo viability; active compounds read high
# How it was run: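 Genome-wide siRNA screen (3 siRNAs/gene, 20 nM) in mouse ES cells carrying hypomorphic BRCA2 R2336H; olaparib 500 nM added 48 h post-transfection, CellTiter-Glo viability 72 h later. Normalized to plate-median negative control; MAD z-scores, gene median, seed-adjusted.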
row,Sequence,z-score
1,GGAGUCUUUAGUGACAUCCTT against AW549877,inactive: 1.48
2,GCCUCUUCGAACUCACUAUTT against Siat7c,inactive: -1.34
3,GGUAUUUUGACCGAAUCAATT against Add3,inactive: 0.61
4,GCAACAUCUUGGAUUUAGGTT against B230396O12Rik,inactive: -0.773
5,GGCCAUGGCAGCUUAGAUUTT against Siat8a,inactive: 0.731
6,UUAAGGUCACCUUCAAUGCTT against Cox11,inactive: -1.84
7,GGAGCUGAGAGUAAAUGAATT against Clcnkb,inactive: -0.644
8,GCAAGUCUGCUAAAGGAUUTT against Taf5l,inactive: 1.56
9,CCUUUCUCUAAGGAGUUAUTT against A630033E08Rik,inactive: -0.212
10,CGCAGGUGAGAGCAAUGUUTT against 1110067I12Rik,inactive: 0.149
11,GGUGAAAAGGUUGAUGUCATT against 4921530L21Rik,inactive: -0.856
12,GGGACAAGUGGUUGAAACCTT against LOC381813,inactive: -0.445
13,GGAUCAUUCUGUGAACAAGTT against Ly6h,inactive: -1.24
14,GGUAGAUGAAGUCCUUUAUTT against Mthfs,inactive: 0.0266
15,GGAUGAUUGCCAAAGCAGATT against Eps8,inactive: 0.824
16,CCUAUCGACACUGCCGAAATT against B3gnt4,inactive: 0.407
17,GCUAACCACCAAACCUUCUTT against A430110N23,inactive: 1.71
18,GGAGAAGCUGAAAGGUUAUTT against Ifrd2,inactive: 0.555
19,CCUUAUUGGAUCUUGUUCGTT against 4932415G16Rik,inactive: 0.16
20,GGGCAAGAGAGUAGAACUGTT against D030051N19Rik,inactive: 0.175
21,GGUCUGAGCAUUCUCAGCATT against Mrgprb2,inactive: -0.804
22,GCUUAUGACUUAAAAGCCCTT against 2610020C11Rik,inactive: -0.311
23,GGAGUUUUUAAAUGUUCUCTT against Syt1,inactive: 1.02
24,GGAUCAAAGACGAAUUCCATT against Tle3,inactive: -0.197
25,GCACUAAGUUUUGGAUUAATT against Mapkap1,inactive: -0.259
26,GGAUGCAGAAGAUUUUGUGTT against Ptprcap,inactive: 1.55
27,GGUCAGAGCAUUGUGAACATT against Abcb10,inactive: 0.474
28,GCACUUUGAAUAUUGAUCGTT against Hipk3,inactive: 0.0324

# Copied from above: entries 5 to 6
row,Sequence,z-score
5,GGCCAUGGCAGCUUAGAUUTT against Siat8a,inactive: 0.731
6,UUAAGGUCACCUUCAAUGCTT against Cox11,inactive: -1.84
